Measurements reported in PubChem BioAssay AID1224827 (NIAID, 2016).
Here is an unselected part of about 3,800 reagents tested. Of all reagents, about 2,200 (57%) got an active call. 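Active means a strong reporter change in either direction; calls are per siRNA, not per gene; qiagen siRNAs gave weaker effects.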 Entries without a mark were called inactive. The numbers tell different reagents against one gene apart. Further read-outs or replicates are left out here.

Assay: 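Retest primary hits on a TNF reporter with six siRNAs per gene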 (follow-up of hits)
Cells: RAW264.7 G9 mouse macrophage reporter clone
Reagents: single siRNA against mouse genes, 100 nM siRNA
Timing: siRNA for 2 days, then LPS about 16 h
Conditions: bacterial lipopolysaccharide (LPS), 10 ng/ml, cells fixed after overnight (about 16 h) stimulation
Measurement: 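TNF promoter reporter red fluorescence in nuclei, background subtracted, normalised per plate and to non-targeting control siRNA, as z-scores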
Direction: TNF reporter z-score, mean: higher = stronger Tnf promoter reporter signal
Rule for the call: 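Active siRNA: replicate-mean z-score of 2 or more, or -2 or less; no calls for control wells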

Knock-down of Krtap19-1 #1 came out at: TNF reporter z-score, mean -2.85 (active).
Silencing of Krtap19-1 #2 gave: TNF reporter z-score, mean -3.5 (active).
Krtap19-1 #3 gave TNF reporter z-score, mean -4.51 (active).
After knock-down of Krtap19-1 #4 the results were TNF reporter z-score, mean 3.25 (active).
Depletion of Krtap19-1 #5 resulted in: TNF reporter z-score, mean -0.00584.
After knock-down of Krtap19-1 #6, the screen gave TNF reporter z-score, mean -2.38 (active).
With knock-down of Irf8 #1 the results were TNF reporter z-score, mean 5.18 (active).
Against Irf8 #2 the deposit lists TNF reporter z-score, mean -3.25 (active).
For Irf8 #3, the entry reads TNF reporter z-score, mean -3.87 (active).
Against Irf8 #4 the deposit lists TNF reporter z-score, mean 2.99 (active).
Depletion of Irf8 #5 resulted in: TNF reporter z-score, mean -1.77.
Depletion of Irf8 #6 came out at: TNF reporter z-score, mean -2.22 (active).
Against Or2t47 #1, the entry reads TNF reporter z-score, mean 8.69 (active).
With knock-down of Or2t47 #2, the screen gave TNF reporter z-score, mean 7.63 (active).
Depletion of Or2t47 #3 resulted in: TNF reporter z-score, mean -2.61 (active).
For Or2t47 #4, the entry reads TNF reporter z-score, mean 2.89 (active).
Or2t47 #5 showed TNF reporter z-score, mean 2.51 (active).
For Or2t47 #6, the entry reads TNF reporter z-score, mean -3.45 (active).

3 entries from above, ordered by “TNF reporter z-score, mean”, descending:
Or2t47 #1 → TNF reporter z-score, mean: 8.69 (active)
Irf8 #5 → TNF reporter z-score, mean: -1.77
Irf8 #6 → TNF reporter z-score, mean: -2.22 (active)

Next reagents follow.
After knock-down of Etf1 #1, the screen gave TNF reporter z-score, mean 4.01 (active).
Silencing of Etf1 #2 came out at: TNF reporter z-score, mean -4.08 (active).
Against Etf1 #3, the values are TNF reporter z-score, mean -4.1 (active).
Etf1 #4 showed TNF reporter z-score, mean -0.443.
Against Etf1 #5, the entry reads TNF reporter z-score, mean -1.38.
Knock-down of Etf1 #6 gave: TNF reporter z-score, mean -3.25 (active).
Depletion of Or2z9 #1 came out at: TNF reporter z-score, mean -0.357.
Or2z9 #2 scored TNF reporter z-score, mean -0.774.
Or2z9 #3 showed TNF reporter z-score, mean -0.97.
With knock-down of Hc #1, the record shows TNF reporter z-score, mean 1.16.
Hc #2 scored TNF reporter z-score, mean -2.64 (active).
Knock-down of Hc #3 resulted in: TNF reporter z-score, mean -3.55 (active).
After knock-down of Hc #4, the record shows TNF reporter z-score, mean 1.66.
Silencing of Hc #5 gave: TNF reporter z-score, mean 0.618.
Hc #6 gave TNF reporter z-score, mean 0.357.
